# The list shows a part of the results.
# B1: NanH (Corynebacterium diphtheriae), C6JSW6 (protein)
# chain: MYSSNRTYSRAILGLSAVLTLSFTSLVAPVNAEEPETVVPATAELEGEVAATLPSAETGLLDAAPPKPVARGAAGDLQLPAVNEKEVFEEGRVIRAPEPDQSRCYRIPALVTAKNGDLLLAFDNRYGGGDGAKTWCRDAPYENMKRINRQNMQTDIQLYRSVDNGQSFEDFGYIAQGTADVRELSYTDPALVTDRTTGKIFAFFVRAYDYRVGQSSAGFNEGDVEAEIQKRDVQDTVVVESLDGGQTWGNMRLLSALTAKVSSISTGDTIFDGRGRFVTSGAGIQLQYGEHAGRLIVPISVDIDPKDSAKFINLAIYSDDHGQTWQAGIGTAGGAGFSGDVSKIVELSDGRLMMSSKDNDKPRWVSYSEDQGENWSTPKRKIIAPPQHPEKHNTGINVGLIRAYPNAPENSAAARVLLYSAPIDQRYSHKHTEDGRNNGWVMGSCDDGKTWSFGRQIEKNRFQYSSMTVMSDGNIGMVYESGDFSTGMNLKFAKFNMAWLGADCHSNEALGLTGDIDKEIVEAQEKAAEATKEAQEAAEKVQKLTEELAAARKENDELKNQVKGFKEAVGDLANEAEDLADKVFKLETAVTEAKEKATVAEKAASDAVTQLQKAESIAEEQKAKAESAAAEAQALREKLERLEGSILTVKENPEAEEIADLSSTAKDAADAARRAATDANGALSGQKQDEEKPAMGLMGILKVLAGIIPLVAIIATIFQTFRLPFNIPGMR
# How the values were obtained:
# Experiment in all cases: glycan array binding signal (z-score within array); higher = stronger binding
# Details in all cases: glycan notation: IUPAC condensed, linker removed
# [1] = target: Gal(b1-3)GlcNAc(a1-6)Gal(b1-4)GlcNAc
# Outline: (§1)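 Negative Z-scores can be read as non-binding. The Z-score is calculated within each array and then averaged across arrays of one protein sequence at different concentrations or buffers and across linkers. Arrays, 3228 in all, were curated from the Consortium for Functional Glycomics database and kept only where the protein sequence was available.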
# [2] = target: Gal(b1-3)GlcNAc(b1-2)Man(a1-3)[Gal(b1-3)GlcNAc(b1-2)Man(a1-6)]Man(b1-4)GlcNAc(b1-4)GlcNAc
# Outline: as §1
# [3] = target: Gal(b1-3)GlcNAc(b1-2)Man(a1-3)[Gal(b1-3)GlcNAc(b1-2)Man(a1-6)]Man(b1-4)GlcNAc(b1-4)[Fuc(a1-6)]GlcNAc
# Outline: as §1
# [4] = target: Gal(b1-3)GlcNAc(b1-2)[Gal(b1-3)GlcNAc(b1-6)]Man(a1-6)[Gal(b1-3)GlcNAc(b1-2)Man(a1-3)]Man(b1-4)GlcNAc(b1-4)GlcNAc
# Outline: as §1
# [5] = target: Gal(b1-3)GlcNAc(b1-3)Gal(b1-3)GlcNAc
# Outline: as §1
# [6] = target: Gal(b1-3)GlcNAc(b1-3)Gal(b1-4)Glc
# Outline: as §1
# [7] = target: Gal(b1-3)GlcNAc(b1-3)Gal(b1-4)GlcNAc
# Outline: as §1
# [8] = target: Gal(b1-3)GlcNAc(b1-3)Gal(b1-4)GlcNAc(b1-6)[Gal(b1-3)GlcNAc(b1-3)]Gal(b1-4)Glc
# Outline: as §1
# [9] = target: Gal(b1-3)GlcNAc(b1-3)Gal(b1-4)[Fuc(a1-3)]GlcNAc(b1-6)[Gal(b1-3)GlcNAc(b1-3)]Gal(b1-4)Glc
# Outline: as §1
# [10] = target: Gal(b1-3)GlcNAc(b1-3)GalNAc
# Outline: as §1
# [11] = target: Gal(b1-3)GlcNAc(b1-6)Gal(b1-4)GlcNAc
# Outline: as §1
# [12] = target: Gal(b1-3)[Fuc(a1-4)]GlcNAc
# Outline: as §1
# [13] = target: Gal(b1-3)[Fuc(a1-4)]GlcNAc(b1-2)Man(a1-3)[Gal(b1-3)[Fuc(a1-4)]GlcNAc(b1-2)Man(a1-6)]Man(b1-4)GlcNAc(b1-4)GlcNAc
# Outline: as §1
# [14] = target: Gal(b1-3)[Fuc(a1-4)]GlcNAc(b1-2)Man(a1-3)[Gal(b1-3)[Fuc(a1-4)]GlcNAc(b1-2)Man(a1-6)]Man(b1-4)GlcNAc(b1-4)[Fuc(a1-6)]GlcNAc
# Outline: as §1
# [15] = target: Gal(b1-3)[Fuc(a1-4)]GlcNAc(b1-3)Gal(b1-3)[Fuc(a1-4)]GlcNAc
# Outline: as §1
# [16] = target: Gal(b1-3)[Fuc(a1-4)]GlcNAc(b1-3)Gal(b1-4)GlcNAc
# Outline: as §1
# [17] = target: Gal(b1-3)[Fuc(a1-4)]GlcNAc(b1-3)Gal(b1-4)[Fuc(a1-3)]GlcNAc
# Outline: as §1
# [18] = target: Gal(b1-3)[GlcNAc(b1-6)]GalNAc
# Outline: as §1
# [19] = target: Gal(b1-3)[Neu5Ac(a2-6)]GalNAc
# Outline: as §1
# [20] = target: Gal(b1-3)[Neu5Ac(a2-6)]GlcNAc(b1-6)Gal(b1-4)Glc
# Outline: as §1
# [21] = target: Gal(b1-3)[Neu5Ac(b2-6)]GalNAc
# Outline: as §1
# Gal(b1-4)Gal = target: Gal(b1-4)Gal
# Outline: as §1
# [22] = target: Gal(b1-4)GalNAc(a1-3)[Fuc(a1-2)]Gal(b1-4)GlcNAc
# Outline: as §1
# [23] = target: Gal(b1-4)GalNAc(b1-3)[Fuc(a1-2)]Gal(b1-4)GlcNAc
# Outline: as §1
# Gal(b1-4)Glc = target: Gal(b1-4)Glc
# Outline: as §1
# Gal(b1-4)Glc6S = target: Gal(b1-4)Glc6S
# Outline: as §1
# Gal(b1-4)GlcNAc = target: Gal(b1-4)GlcNAc
# Outline: as §1
# [24] = target: Gal(b1-4)GlcNAc(a1-6)Gal(b1-4)GlcNAc
# Outline: as §1
# Gal(b1-4)GlcNAc(b1-2)Man = target: Gal(b1-4)GlcNAc(b1-2)Man
# Outline: as §1
# [25] = target: Gal(b1-4)GlcNAc(b1-2)Man(a1-3)Man(b1-4)GlcNAc(b1-4)GlcNAc
# Outline: as §1
binder,measurement,setting,value
B1,glycan array binding signal (z-score),[1],-0.677
same,glycan array binding signal (z-score),[2],-0.48
same,glycan array binding signal (z-score),[3],-1.34
same,glycan array binding signal (z-score),[4],0.848
same,glycan array binding signal (z-score),[5],-0.613
same,glycan array binding signal (z-score),[6],-1.28
same,glycan array binding signal (z-score),[7],-0.308
same,glycan array binding signal (z-score),[8],-0.073
same,glycan array binding signal (z-score),[9],0.902
same,glycan array binding signal (z-score),[10],-1.71
same,glycan array binding signal (z-score),[11],-0.126
same,glycan array binding signal (z-score),[12],0.201
same,glycan array binding signal (z-score),[13],1.03
same,glycan array binding signal (z-score),[14],2.84
same,glycan array binding signal (z-score),[15],-0.787
same,glycan array binding signal (z-score),[16],0.675
same,glycan array binding signal (z-score),[17],-1.18
same,glycan array binding signal (z-score),[18],-0.083
same,glycan array binding signal (z-score),[19],-0.334
same,glycan array binding signal (z-score),[20],-0.633
same,glycan array binding signal (z-score),[21],-0.601
same,glycan array binding signal (z-score),Gal(b1-4)Gal,-1.5
same,glycan array binding signal (z-score),[22],-0.104
same,glycan array binding signal (z-score),[23],0.12
same,glycan array binding signal (z-score),Gal(b1-4)Glc,-0.023
same,glycan array binding signal (z-score),Gal(b1-4)Glc6S,-0.262
same,glycan array binding signal (z-score),Gal(b1-4)GlcNAc,0.72
same,glycan array binding signal (z-score),[24],0.525
same,glycan array binding signal (z-score),Gal(b1-4)GlcNAc(b1-2)Man,1.74
same,glycan array binding signal (z-score),[25],0.675

# Random excerpt: 2 records from the list, in no set order.
binder,measurement,setting,value
B1,glycan array binding signal (z-score),[23],0.12
same,glycan array binding signal (z-score),[21],-0.601
